Reference: PubChem BioAssay AID1347076 (National Center for Advancing Translational Sciences (NCATS), 2019)
Hit rate of the full screen: of about 400,000 compounds, about 13,000 (3.2%) were called active. This list was built around the results that the source calls inconclusive (neither active nor inactive); the mix of calls is not that of the screen. Calls come from the whole dose curve; as a rule, active = well fitted cell-killing curve with a large enough effect; inconclusive = small, poorly fitted or top-dose-only effect, or effect the other way; inactive = flat fitted curve, though single readings scatter. A potency beside an inconclusive call is a rough fit, not a confirmed value.

Experiment: qHTS assay for MDR1-selective chemotherapeutics: Primary screen using the drug-selected MDR subline cells KB-V1; note: nearly all actives have a fitted effect of over 60% in size
Conditions: KB-V1 MDR cells viability, CellTiter-Glo, 72 h; activity change, negative = cytotoxicity: at 46.1 µM (top of the series)
Summary of the method: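 Drug-selected KB-V1 cells, grown in DMEM lacking phenol red with 10% FBS, receive compound titrations; after three days at 37 degrees C, surviving cell ATP is quantified by CellTiter-Glo luminescence and responses normalized and curve-fitted.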
% is set by controls: 0 for no effect and ±100 for the full control effect; potency is the fitted concentration of half-maximal effect.

Row | Compound | activity change, negative = cytotoxicity | Potency
1 | O=C(COc1cc(F)ccc1[N+](=O)[O-])NCCCc1ccccc1 | inactive: -7.74% | –
2 | C=Cn1cc[n+](CC(=O)c2ccc(OC)c(OC)c2)c1 | – | inconclusive: 23.1 µM [rising, single point]
3 | CC(C)(c1ccccc1)c1ccc(OCCN2CCOCC2)cc1 | inactive: -16.5% | –
4 | Fc1ccc(-c2csc(NC(=S)Nc3ccccc3)n2)cc1 | inactive: -1.11% | –
5 | CCCCCc1nnc(NC(=O)C2CCCO2)s1 (stereo not drawn) | – | inconclusive: 13 µM [cytotoxic, partial curve]
6 | CCCCNc1nc2ccccc2n1CC(=O)N1CCc2ccccc2C1 | – | active: 10.3 µM
7 | Cn1ncc(C#N)c1/N=C/N(Cc1ccccc1)Cc1ccccc1 | – | inconclusive: 20.6 µM [cytotoxic, single point]
8 | Cc1nn2cnnc2c(C)c1Cc1c(F)cccc1Cl | inactive: -17.4% | –
9 | COc1ccc(CNC(=O)C2CCN(S(=O)(=O)c3ccc4c(ccn4C)c3)CC2)cc1 | inactive: -2.14% | –
10 | C=CCNC(=S)NNC(=O)c1ccc(=O)n(Cc2ccccc2)c1 | – | inconclusive: 23.1 µM [rising, single point]
11 | Cc1ccc(-n2[nH]c(C)c(C=Nc3ccc(C)cn3)c2=O)cc1 | – | inconclusive: 23.1 µM [cytotoxic, single point]
12 | Cc1cc(C)c2ccc(C(=O)O)nc2c1O | inactive: -21.6% | –
13 | COc1cccc(-c2ccc(C#N)c(OC(=O)c3c(Cl)cccc3Cl)n2)c1 | – | active: 16.4 µM
14 | Cc1ccc(NC(=O)C(C)Sc2nnc(C)n2CC2CCCO2)cc1 (stereo not drawn) | – | inconclusive: 29.1 µM [rising, single point]
15 | Cc1ccccc1OCc1csc(N)n1 | – | inconclusive: 0.206 µM [rising, full curve, poor fit]
16 | Cc1ccc(C(N)=O)cc1S(=O)(=O)Nc1cccc(C)c1C | – | inconclusive: 20.6 µM [cytotoxic, single point]
17 | O=C(Nc1ccccc1-c1ccccc1)NC1CC2CCCC(C1)N2Cc1ccc(F)cc1 (stereo not drawn) | inactive: -18% | –
18 | Nc1c(C(=O)CSc2n[nH]c(-c3ccccc3)n2)c(=O)[nH]c(=O)n1C1CC1 | – | inconclusive: 29.1 µM [rising, partial curve, poor fit]
19 | CCN(Cc1ccccc1)C(=O)CCS(=O)(=O)c1ccc2c(c1)CCN2C(C)=O | – | inactive
20 | CCOC(=O)C1(Cc2ccccc2C)CCCN(C(=O)c2ccc(COC)o2)C1 (stereo not drawn) | – | inconclusive: 16.4 µM [cytotoxic, single point]
21 | Oc1ccc(C2C(c3ccccc3)=NN=C(c3ccccc3F)N2O)c(O)c1 (stereo not drawn) | inactive: -29.4% | –
22 | CCN(CC)CCN(C(=O)CCS(=O)(=O)c1ccccc1)c1nc2cc(C)cc(C)c2s1 | inactive: -7.1% | –
23 | S=c1[nH]cc(Oc2ccc(Cl)cc2Cl)c(=S)[nH]1 | – | inconclusive: 0.116 µM [rising, full curve]
24 | COc1ccc(NC(=S)NCCc2ccccc2OC)c(OC)c1 | – | active: 20.6 µM
25 | Cn1c(O)c(N=NC(=O)c2ccco2)c2ccccc21 | inactive: 0% | –

Row | Compound | activity change, negative = cytotoxicity | Potency
26 | CCOC(=O)C1CCN(C(c2cc3c(C)ccc(C)c3[nH]c2=O)c2nnnn2C2CCCCC2)CC1 (stereo not drawn) | – | inconclusive: 29.1 µM [cytotoxic, single point]
27 | Cc1cccc(NS(=O)(=O)c2cccc(C(=O)NCC(c3ccco3)N3CCCCC3)c2)c1 (stereo not drawn) | – | inconclusive: 6.51 µM [cytotoxic, partial curve]
28 | Brc1ccccc1-c1nnc(SCc2nc3ccccc3s2)o1 | inactive: -8.52% | –
29 | COc1cc(C(=O)NC2(C(F)(F)F)NC(=O)N(CCCc3ccccc3)C2=O)cc(OC)c1OC (stereo not drawn) | inactive: -0.148% | –
30 | Cc1c(C(c2cc(O)ccc2O)c2c(C)n(C)n(-c3ccccc3)c2=O)c(=O)n(-c2ccccc2)n1C | inactive: 23.5% | –
31 | O=C(CN1C(=O)CCOc2ccccc21)Nc1ccc(Cl)c(S(=O)(=O)N2CCOCC2)c1 | – | inconclusive: 29.1 µM [rising, single point]
32 | Cc1cc(C(=O)Nc2sc3c(c2C#N)CCCC3)no1 | – | inconclusive: 29.1 µM [cytotoxic, single point]
33 | COc1ccc(O)c(C(=O)c2cnc3c(c2)c(-c2ccc(F)cc2)c(C#N)c(=O)n3C)c1 | – | inconclusive: 5.17 µM [cytotoxic, partial curve, poor fit]
34 | CCc1ccc(NC(=O)C2CCN(S(=O)(=O)c3ccc4c(c3)NC(=O)C(C)S4)CC2)cc1 (stereo not drawn) | – | inconclusive: 7.31 µM [cytotoxic, partial curve, poor fit]
35 | COc1ccc(CN2CCN(S(=O)(=O)c3ccc(NC(C)=O)cc3)CC2)c(OC)c1OC | inactive: -17.7% | –
36 | COc1ccc(CCN2CN(S(=O)(=O)c3ccccc3)c3nc4ccccc4nc32)cc1 | – | inconclusive: 3.26 µM [cytotoxic, full curve]
37 | CCOc1ccc(CCNC(=O)Cn2c(C)c3cnn(-c4ccccc4)c(=O)c3c2C)cc1 | inactive: 0.331% | –
38 | Cc1ccc(-c2cc(C(F)F)nc(NCC3CCCO3)n2)cc1 (stereo not drawn) | – | inconclusive: 16.4 µM [cytotoxic, partial curve]
39 | CCOC(=O)N1CCN(C(=O)C(CC)n2nc(C)c3sc4ccccc4c3c2=O)CC1 (stereo not drawn) | – | inconclusive: 0.517 µM [cytotoxic, full curve, poor fit]
40 | COC(=O)C1=CN(c2ccc(C(C)(C)C)cc2)C(N)=C(C#N)C1c1ccccc1F (stereo not drawn) | – | inconclusive: 2.31 µM [cytotoxic, full curve]
41 | CC1(C)CC(=O)C2=C(C1)N(c1ccccc1)C(=O)C2(O)C(F)(F)F (stereo not drawn) | – | inconclusive: 16.4 µM [cytotoxic, partial curve, poor fit]
42 | CCCCCCSc1ccc(-c2nc3ccccn3c2NCCCC)cc1 | – | inconclusive: 29.1 µM [cytotoxic, single point]
43 | FCCCOc1ccc(-c2nccc(-c3ccccn3)n2)cc1 | – | inconclusive: 29.1 µM [rising, single point]
44 | Cc1cc(C(=O)c2ccccc2)c(NC(=O)CN2CCOCC2)s1 | inactive: -10.1% | –
45 | OCCN1CCN(Cc2cc(Cl)c3cccnc3c2O)CC1 | – | active: 5.8 µM
46 | COc1ccc(-c2nc3c(c(=O)c4ccccc4n3C)c(=O)n2Cc2ccccc2)cc1 | – | inconclusive: 2.59 µM [cytotoxic, partial curve, poor fit]
47 | O=C(/C=C/c1ccco1)OCC(=O)N1CCCCC1 | – | inconclusive: 20.6 µM [cytotoxic, single point]
48 | CC(=O)Nc1ccc(S(=O)(=O)N2CCC3(CC2)OCCO3)cc1 | inactive: 7.61% | –
49 | CCOC(=O)[C@]12CCCC=C1N(Cc1ccccc1)C(=O)[C@H](CC(=O)NCc1cccs1)C2 | – | inconclusive: 3.26 µM [cytotoxic, partial curve]
50 | Cc1cccc2cc(CN(Cc3nnnn3C3CCCC3)C3CCCCC3)c(=O)[nH]c12 | – | active: 23.1 µM

Row | Compound | activity change, negative = cytotoxicity | Potency
51 | C/C(CC(C)C)=N\Nc1ccc(S(N)(=O)=O)cc1[N+](=O)[O-] | inactive: 0% | –
52 | O=C(O)CCCNS(=O)(=O)c1ccc2c(c1)OCCCO2 | – | inconclusive: 32.6 µM [rising, single point]
53 | CS(=O)(=O)c1ccc(C(=O)OCC(=O)N2CCN(CCC3CCCCC3)CC2)cc1[N+](=O)[O-] | – | active: 23.1 µM
54 | CCCc1[nH]nc2c1C(c1cccc(OC(=O)c3ccco3)c1)C(C#N)=C(N)O2 (stereo not drawn) | inactive: 9.93% | –
55 | OC1CCN(c2c3c(nc4cc(-c5ccc(Cl)cc5)nn24)CCC3)CC1 | – | inconclusive: 18.4 µM [cytotoxic, partial curve]
56 | CCN(CC(=O)NCc1ccc(Cl)cc1)C(=O)c1ccc(C#N)cc1 | inactive: 0% | –
57 | CC(=O)N1N=C(c2ccccc2)OC1(C)CC(=O)Nc1ccccc1 (stereo not drawn) | – | inconclusive: 13 µM [cytotoxic, partial curve]
58 | COc1cc(OC)c(NC(=O)CSc2cc(=O)n(C)c3ccc(Cl)cc23)cc1Cl | – | inconclusive: 29.1 µM [rising, single point]
59 | O=C(N/N=C/c1cccs1)c1cccc2cc[nH]c12 | – | active: 20.6 µM
60 | Cc1ccc2c(c1)/C(=C/c1ccccc1)C(=O)N2 | – | inconclusive: 32.6 µM [cytotoxic, single point]
61 | O=C(NCCCN1CCOCC1)c1cc(-c2ccc(F)cc2)on1 | – | inconclusive: 35.5 µM [cytotoxic, single point]
62 | COc1cccc(-c2cnc(C(O)c3ccc(-c4ccccc4)cc3)[nH]2)c1 (stereo not drawn) | – | inconclusive: 23.1 µM [cytotoxic, single point]
63 | O=C(C[n+]1cccc(CNC(=O)c2ccc(OC(F)F)cc2)c1)Nc1cccc(C(F)(F)F)c1 | – | inconclusive: 16.4 µM [rising, single point]
64 | COC(=O)c1scc(C#N)c1N/N=C(\C#N)S(=O)(=O)c1ccc(Cl)cc1 | – | active: 8.2 µM
65 | CCN1CCN(C(c2cccs2)C(C)NC(=O)c2ccco2)CC1 (stereo not drawn) | – | inconclusive: 18.4 µM [cytotoxic, partial curve, poor fit]
66 | Cc1nc(-c2ccc(C)c(S(=O)(=O)N3CCC(C(=O)NCc4ccc(F)cc4)CC3)c2)no1 | inactive: 10% | –
67 | O=C(NNC(=O)C1CCN(Cc2ccc(Cl)c(Cl)c2)CC1)c1cccs1 | – | inconclusive: 29.1 µM [cytotoxic, single point]
68 | CC(=O)c1cccc(NC(=S)NCCc2ccc(Cl)cc2)c1 | – | active: 18.4 µM
69 | Cc1ccc(O)c(C(=O)c2cc(C#N)c(=O)n(-c3nccs3)c2)c1 | – | inconclusive: 29.1 µM [cytotoxic, partial curve, poor fit]
70 | O=C1C2CC=C(Cl)CC2C(=O)N1CCN1CCOCC1 (stereo not drawn) | – | inconclusive: 25.9 µM [rising, single point]
71 | C=C(C)COc1ccc2oc(C)c(C(=O)OCCOC)c2c1 | inactive: -22.7% | –
72 | COc1ccc(OC)c(NC(=O)CC2SC(=Nc3ccccc3)N(CCc3ccccn3)C2=O)c1 (stereo not drawn) | inactive: -8.75% | –
73 | CCC(c1nnnn1-c1ccc2c(c1)OCCO2)N1CCN(c2ccc(C(F)(F)F)cc2[N+](=O)[O-])CC1 (stereo not drawn) | – | inconclusive: 10.3 µM [cytotoxic, partial curve]

A draw from above in order of length of the SMILES, rising.
Row | Compound | activity change, negative = cytotoxicity | Potency
68 | CC(=O)c1cccc(NC(=S)NCCc2ccc(Cl)cc2)c1 | – | active: 18.4 µM
61 | O=C(NCCCN1CCOCC1)c1cc(-c2ccc(F)cc2)on1 | – | inconclusive: 35.5 µM [cytotoxic, single point]
69 | Cc1ccc(O)c(C(=O)c2cc(C#N)c(=O)n(-c3nccs3)c2)c1 | – | inconclusive: 29.1 µM [cytotoxic, partial curve, poor fit]
58 | COc1cc(OC)c(NC(=O)CSc2cc(=O)n(C)c3ccc(Cl)cc23)cc1Cl | – | inconclusive: 29.1 µM [rising, single point]
66 | Cc1nc(-c2ccc(C)c(S(=O)(=O)N3CCC(C(=O)NCc4ccc(F)cc4)CC3)c2)no1 | inactive: 10% | –
